# Source: US20040058943A1, “Medicinal composition for treatment of chronic cardiac failure” (priority 2001, published 2004)
# System: rats of heart failure after cardiac infarction prepared by coronary ligation
# Settings: rat, in vivo, po, 1 mg/kg
structure (smiles),measurement,value
"COc1ccccc1Oc1c(NS(=O)(=O)C=Cc2ccccc2)nc(-c2ncccn2)nc1OC.[K] [Compound 1, N-[6-methoxy-5-(2-methoxyphenoxy)-2-(2-pyrimidinyl)-4-pyrimidinyl]-2-phenylethenesulfonamide potassium salt]","left ventricular systole and diastole function (LV+dP/dtmax, LVEDP)",ameliorated to the same level as that of the rats of the normal group
